Assay results: doi:10.1101/2022.10.27.514035
No constants are given. Whether binding was seen depends on the method and setting. Tags and fused reporters may be left off the sequences shown.

Tests used:
[1] = target: S. japonicus Rop1 with mutated putative AIM motif, SBP-tagged (S. japonicus); assay: pull-down
[2] = target: S. japonicus Rop1, SBP-tagged (S. japonicus); assay: pull-down

binding [1] | binding [2] | Binder
no binding | no binding | S. cerevisiae Atg8, His10-tagged (protein, UniProt P38182 1-117) MKSTFKSEYPFEKRKAESERIADRFKNRIPVICEKAEKSDIPEIDKRKYLVPADLTVGQFVYVIRKRIMLPPEKAIFIFVNDTLPPTAALMSAIYQEHKDKDGFLYVTYSGENTFGR
no binding | no binding | S. pombe Atg8, GST-tagged (protein, UniProt O94272 1-116) MRSQFKDDFSFEKRKTESQRIREKYPDRIPVICEKVDKSDIAAIDKKKYLVPSDLTVGQFVYVIRKRIKLSPEKAIFIFIDEILPPTAALMSTIYEEHKSEDGFLYITYSGENTFG
